Results are given in words; binding and its absence hold for the method and conditions named.
Tests used:
Test in all cases: ELISA, coated protein 100 ng/well, anti-HA detection
bFGF = bFGF (UniProt P09038)
EGF = EGF (UniProt P01133)
Her2 = Her2 (UniProt P04626)

By UniProt entry, the sequences of proteins in these tests, tags left out. Residues count along the entry.
UniProt P09038, residues 143-288: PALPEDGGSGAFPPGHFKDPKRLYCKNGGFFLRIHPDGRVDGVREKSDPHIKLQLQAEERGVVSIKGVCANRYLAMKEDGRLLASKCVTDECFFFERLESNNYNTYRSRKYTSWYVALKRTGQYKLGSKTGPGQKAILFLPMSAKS
UniProt P01133, residues 971-1023: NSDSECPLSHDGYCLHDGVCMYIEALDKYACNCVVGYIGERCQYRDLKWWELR

Measured: binding

B1: 抗EGFR纳米抗体 Nb H3 (VHH, not shown: small tags and cut ends)
VHH: QVQLQESGGGSVQAGGSLNLSCAVSGYTGCKNGMSWYRQAPGKEREFVSGIDRDGSPSYADSVKGRFTISQDNAKNIVFLQMNSLRPEDTAMYYCATNPQRNIYGGSWCNYWGQGTQVTVSS
no binding (tested: 100ng/孔): bFGF | EGF | Her2

Reference: patent CN111171151A
